The target of assay [1] is T1, GAB1, tyrosine-phosphorylated (130 kDa band of A431 lysate) (human (endogenous in A431)) (UniProt Q13480).
T1 sequence (chain, phosphotyrosine (sites that bind each probe not determined)): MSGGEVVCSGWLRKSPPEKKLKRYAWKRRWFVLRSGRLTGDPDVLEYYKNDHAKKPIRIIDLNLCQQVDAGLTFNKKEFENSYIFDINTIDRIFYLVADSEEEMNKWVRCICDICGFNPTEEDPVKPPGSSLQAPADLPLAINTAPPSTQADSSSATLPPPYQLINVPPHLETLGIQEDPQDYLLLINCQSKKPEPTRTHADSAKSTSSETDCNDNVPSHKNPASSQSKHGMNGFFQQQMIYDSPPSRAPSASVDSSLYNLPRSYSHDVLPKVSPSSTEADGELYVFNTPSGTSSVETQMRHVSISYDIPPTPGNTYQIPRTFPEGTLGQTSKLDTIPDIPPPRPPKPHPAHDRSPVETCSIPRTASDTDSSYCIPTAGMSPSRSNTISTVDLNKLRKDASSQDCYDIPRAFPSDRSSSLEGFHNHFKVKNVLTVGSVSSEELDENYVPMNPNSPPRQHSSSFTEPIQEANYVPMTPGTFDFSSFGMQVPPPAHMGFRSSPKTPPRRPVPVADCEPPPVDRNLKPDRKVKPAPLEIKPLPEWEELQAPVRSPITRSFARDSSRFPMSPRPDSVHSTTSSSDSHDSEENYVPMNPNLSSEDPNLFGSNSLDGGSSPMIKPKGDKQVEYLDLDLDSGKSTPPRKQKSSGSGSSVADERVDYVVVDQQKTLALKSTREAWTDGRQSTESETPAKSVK
In words: far-Western, overlay or dot blot; lysates of starved A431 cells stimulated with 25 ng/ml EGF (60-min time course; also 1 and 10 ng/ml EGF, or pervanadate), 20 μg per lane on LDS-PAGE, transferred to nitrocellulose; blotted 2 hr with 1–5 ng/ml recombinant GST-SH2/PTB labeled with GSH-HRP and anti-GST-HRP in 5% milk-TBST; bands identified by immunodepletion; only the binder purified.

The chains behind the UniProt entries cited, without tags or fusion partners. Where a name states a change or a piece, a line headed by the entry shows the natural chain unless it says otherwise.
UniProt P27986: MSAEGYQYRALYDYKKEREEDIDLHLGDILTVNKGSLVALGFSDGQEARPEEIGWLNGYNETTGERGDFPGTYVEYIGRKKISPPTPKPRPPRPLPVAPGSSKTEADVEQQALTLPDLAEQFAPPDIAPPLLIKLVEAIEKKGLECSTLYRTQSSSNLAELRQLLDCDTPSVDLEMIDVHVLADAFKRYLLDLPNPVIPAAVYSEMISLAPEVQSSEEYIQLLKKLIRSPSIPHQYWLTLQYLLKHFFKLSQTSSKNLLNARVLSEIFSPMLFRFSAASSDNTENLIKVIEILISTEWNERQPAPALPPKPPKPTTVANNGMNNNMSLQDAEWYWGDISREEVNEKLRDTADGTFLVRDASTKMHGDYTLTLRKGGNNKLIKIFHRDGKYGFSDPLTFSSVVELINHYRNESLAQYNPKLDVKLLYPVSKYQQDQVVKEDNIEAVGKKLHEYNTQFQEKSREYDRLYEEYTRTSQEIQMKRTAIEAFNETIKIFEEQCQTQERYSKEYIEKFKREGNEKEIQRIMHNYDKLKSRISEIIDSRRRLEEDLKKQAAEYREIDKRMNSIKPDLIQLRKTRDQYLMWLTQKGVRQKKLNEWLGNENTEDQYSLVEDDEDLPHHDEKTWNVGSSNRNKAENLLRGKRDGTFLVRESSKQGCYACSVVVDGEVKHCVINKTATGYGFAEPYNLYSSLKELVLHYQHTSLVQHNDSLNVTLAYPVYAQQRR
UniProt P20936: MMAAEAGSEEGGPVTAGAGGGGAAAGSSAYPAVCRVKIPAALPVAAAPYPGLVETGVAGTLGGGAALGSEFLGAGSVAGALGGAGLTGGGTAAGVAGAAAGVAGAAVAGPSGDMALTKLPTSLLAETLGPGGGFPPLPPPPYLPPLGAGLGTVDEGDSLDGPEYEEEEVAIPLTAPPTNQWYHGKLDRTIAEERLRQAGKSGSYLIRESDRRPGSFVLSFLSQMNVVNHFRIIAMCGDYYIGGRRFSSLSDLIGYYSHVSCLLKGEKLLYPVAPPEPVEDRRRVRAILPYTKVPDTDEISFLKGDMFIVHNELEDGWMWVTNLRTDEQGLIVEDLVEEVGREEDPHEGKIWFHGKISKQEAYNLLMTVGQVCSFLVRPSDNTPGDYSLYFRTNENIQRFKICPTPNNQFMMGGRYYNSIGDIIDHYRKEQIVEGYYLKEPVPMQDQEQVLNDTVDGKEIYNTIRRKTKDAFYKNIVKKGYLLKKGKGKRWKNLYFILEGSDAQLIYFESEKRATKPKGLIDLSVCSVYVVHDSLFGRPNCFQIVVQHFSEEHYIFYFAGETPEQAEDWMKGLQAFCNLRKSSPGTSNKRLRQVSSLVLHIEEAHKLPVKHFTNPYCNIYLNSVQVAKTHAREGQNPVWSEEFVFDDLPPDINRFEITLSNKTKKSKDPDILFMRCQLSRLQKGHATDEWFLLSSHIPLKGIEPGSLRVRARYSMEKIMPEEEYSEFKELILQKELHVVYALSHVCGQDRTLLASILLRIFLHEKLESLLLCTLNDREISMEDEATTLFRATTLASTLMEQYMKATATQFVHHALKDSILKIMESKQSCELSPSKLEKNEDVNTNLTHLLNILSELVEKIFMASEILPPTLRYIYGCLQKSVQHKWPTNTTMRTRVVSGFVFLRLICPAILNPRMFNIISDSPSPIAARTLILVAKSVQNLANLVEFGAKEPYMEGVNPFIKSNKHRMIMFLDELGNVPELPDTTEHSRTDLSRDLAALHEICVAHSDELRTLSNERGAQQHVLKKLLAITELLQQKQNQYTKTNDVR

Assay [2] deals with T2, p130CAS, tyrosine-phosphorylated (doublet at 150 and 115 kDa of A431 lysate) (human (endogenous in A431)) (UniProt P56945).
T2 sequence (chain, phosphotyrosine (sites that bind each probe not determined)): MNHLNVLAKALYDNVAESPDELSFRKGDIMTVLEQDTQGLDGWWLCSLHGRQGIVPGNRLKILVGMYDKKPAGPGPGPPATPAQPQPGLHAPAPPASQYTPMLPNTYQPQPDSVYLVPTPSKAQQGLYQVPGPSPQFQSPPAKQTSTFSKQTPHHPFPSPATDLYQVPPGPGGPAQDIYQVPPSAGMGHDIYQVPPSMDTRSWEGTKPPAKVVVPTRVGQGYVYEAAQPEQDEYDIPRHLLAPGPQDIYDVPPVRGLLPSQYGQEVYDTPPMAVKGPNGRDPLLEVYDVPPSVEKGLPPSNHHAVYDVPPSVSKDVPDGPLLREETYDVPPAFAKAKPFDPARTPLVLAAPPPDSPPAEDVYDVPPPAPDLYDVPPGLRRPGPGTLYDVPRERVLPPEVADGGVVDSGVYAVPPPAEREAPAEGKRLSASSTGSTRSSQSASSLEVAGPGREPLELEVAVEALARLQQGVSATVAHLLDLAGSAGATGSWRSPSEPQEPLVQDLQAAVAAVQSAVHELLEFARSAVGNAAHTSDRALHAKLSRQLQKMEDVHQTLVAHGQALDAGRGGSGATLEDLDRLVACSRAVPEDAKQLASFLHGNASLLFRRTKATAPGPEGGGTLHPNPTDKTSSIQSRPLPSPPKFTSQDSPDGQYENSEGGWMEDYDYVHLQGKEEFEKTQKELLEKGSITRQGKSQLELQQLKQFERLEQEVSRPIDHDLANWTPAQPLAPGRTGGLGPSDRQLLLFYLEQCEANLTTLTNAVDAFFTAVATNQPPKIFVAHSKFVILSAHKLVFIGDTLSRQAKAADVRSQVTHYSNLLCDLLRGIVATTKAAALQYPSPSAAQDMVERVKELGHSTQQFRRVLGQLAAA
Described as above.

No constants are given. Whether binding was seen depends on the method and setting. Binding calls can cover weak binding; strength is not graded here.

Regarding “GST-p85α natural tandem SH2 domain probe (from UniProt P27986) (domain or fragment)”, in assay [1], the binding result was “binds”. As for “GST-RASGAP natural tandem SH2 domain probe (from UniProt P20936) (domain or fragment)”, the binding entry in assay [2] is listed as “binds”. Regarding “GST-p85α N-terminal SH2 domain probe (from UniProt P27986) (domain or fragment)”, the binding result in assay [1] is on record as “binds”.

The values above are taken from publication PMC4841779.
